Results: PubChem BioAssay AID540256 (National Center for Advancing Translational Sciences (NCATS), 2011)
Several values for one entry are separate records, joined by “and”; a condition that tells them apart may be missing. Equal entries are not always repeated. Among all 300,000 compounds or so, about 3,700 (1.2%) were called active. The inconclusive results got no clear call from the source; some entries with a clear call stand among them for comparison. The call rests on the fitted dose curve; tested in HEK293 cells. Potencies beside an inconclusive call are fits to weak or partial responses and may not hold up.

Test: qHTS for Inhibitors of binding or entry into cells for Lassa Virus; further: nearly all actives have a fitted effect of over 50% in size
Conditions: Lassa virus pseudotype entry inhibition, cell reporter; activity change, negative = inhibition: at 37.9 µM (top of the series) unless noted
On the % scale 0 is the no-effect control and ±100 the full control effect; potency means the concentration at half of the fitted maximal effect.

SMILES | Potency | activity change, negative = inhibition
CC1CCN(S(=O)(=O)c2cc(C(=O)Nc3ccc(Br)cc3F)n(C)c2)CC1 | inactive | –
CC1CCN(C(=O)c2ccc(S(=O)(=O)Cc3ccccc3F)c([N+](=O)[O-])c2)CC1 | inconclusive: 7.08 µM [inhibitor, full curve, poor fit] | –
Cc1cc(C(C)(C)C)cc(C)c1Cn1c2[n+](c3ccc(C(F)(F)F)cc31)CCCCC2 | active: 12.6 µM | –
Cc1sc2c(c1C)c(=O)n(-c1ccc(Cl)cc1)c(=O)n2Cc1c(F)cccc1Cl | inactive | –
COc1cc(C2C(C(=O)Nc3ccccc3)=C(C)Nc3nc(SCc4ccccc4F)nn32)cc(OC)c1OC (stereo unspecified) | inconclusive: 6.31 µM [activator, partial curve, poor fit] | –
CCOC(=O)c1cccc(NC(=O)Nc2ccc(OCC)cc2)c1 | inconclusive: 29.1 µM [inhibitor, single point] | –
COc1ccc(-c2nc3c(s2)CN(S(C)(=O)=O)CC3)cc1OC | inconclusive: 0.708 µM [inhibitor, full curve, poor fit] | –
CCCOc1ccccc1NC(=O)/C=C/C(N)=O | inactive | –
Cc1ccc(S(=O)(=O)n2nc(-c3ccc(Cl)cc3)nc2NCc2ccco2)cc1 | inconclusive: 16.4 µM [inhibitor, single point] | –
Nc1nonc1/C(=N/O)N1CCN(CCO)CC1 | inactive | –
COCCNc1nc2c(c(=O)n(C)c(=O)n2C)n1Cc1cccc(C)c1 | inactive | –
COc1ccc(CCN2CCC(CNC(=O)c3cnn(-c4ccccc4)c3C3CCN(C(=O)OC(C)(C)C)CC3)CC2)cc1 | inconclusive: 22.4 µM [inhibitor, single point] | –
N#Cc1ccc(C(=O)OCC(=O)NC(=O)NCc2ccccc2)cc1 | inactive | –
CN(C)c1ccc(CNC(=O)CCCn2ccc3cc(S(=O)(=O)N4CCCC4)ccc32)cc1 | inconclusive: 35.5 µM [inhibitor, single point] | –
O=C(NCCc1csc(-c2cccnc2)n1)c1ccc(F)c(F)c1 | inactive | –
CCCCCC1CCC(c2n[nH]c(=S)n2C)CC1 (stereo unspecified) | inconclusive: 35.5 µM [inhibitor, single point] | –
COc1ccc(N2CCN(C(=O)CS(=O)(=O)c3cccc4nsnc34)CC2)cc1 | inactive | –
CC(C)(C)c1cc(C(F)(F)F)n2ncc(-c3ccccc3)c2n1 | inactive | –
N#Cc1cccc(C(=O)Nc2cc(S(=O)(=O)N3CCOCC3)ccc2N2CCCC2)c1 | inconclusive: 6.31 µM [inhibitor, single point] | –
COC(=O)c1cccc(NC(=O)Nc2cc(C(=O)NCc3cccc(F)c3)ccc2N2CCCC2)c1 | inconclusive: 11.2 µM [inhibitor, partial curve, poor fit] | –
C=CCN(C(=O)CNC(=O)c1ccco1)C(C(=O)NC1CCCCC1)c1ccc(F)cc1 (stereo unspecified) | inconclusive: 35.5 µM [activator, partial curve, poor fit] | –
NC(=O)c1ccc(-n2nnnc2SCC(=O)Nc2ccccc2F)cc1 | inactive | –
Cc1ccc(Cc2nc3ccccc3nc2SCC(=O)N2CCCCC2C)cc1 (stereo unspecified) | inconclusive: 17.8 µM [inhibitor, partial curve, poor fit] | –
CC1=C[C@@H](COCc2ccccc2)O[C@@]2(C1)C(=O)Nc1cccc(Br)c12 | inactive and inconclusive: 3 nM [activator, full curve, poor fit] | –

SMILES | Potency | activity change, negative = inhibition
Oc1ccc(NCc2ccc(OCc3ccccc3Cl)cc2)cc1 | inconclusive: 1.12 µM [activator, full curve, poor fit] | –
Cn1c(SCC(=O)Nc2ccc3nc(SCC(=O)N4CCCC4)sc3c2)nnc1-c1ccccc1 | inactive | –
Cn1cnc2c(N/N=C/c3cccs3)ncnc21 | inconclusive: 7.08 µM [inhibitor, partial curve, poor fit] | –
C/C(=N\NC(=O)c1ccc2c(c1)OCCO2)c1ccccc1 | inconclusive: 11.2 µM [inhibitor, single point] | –
O=C(Nc1ccc2c(c1)C(=O)N(CC1CCCO1)C2=O)c1ccc(Cl)c(Cl)c1 (stereo unspecified) | inconclusive: 32.6 µM [activator, single point] | –
Cc1cn(C)c(CC(=O)N2CCN(c3ccccc3F)CC2)c1C(=O)O | inactive | –
Cc1cc(C)nc(SCC(=O)c2ccc(C)c(C)c2)n1 | inconclusive: 35.5 µM [inhibitor, single point] | –
CC(Oc1cccc(Cl)c1)C(=O)Nc1ccc(N2CCOCC2)cc1N1CCOCC1 (stereo unspecified) | inactive | –
CN(Cc1c(F)cccc1Cl)C(=O)CNC(=O)c1ccc2c(c1)OCO2 | inconclusive: 6.31 µM [inhibitor, single point] | –
CCN(CC)CCNCC(O)(c1ccc(Cl)cc1)c1ccc(Cl)cc1 | inconclusive: 35.5 µM [inhibitor, single point] | –
Nc1nccc(/C=C/c2ccc(Cl)cc2)n1 | inactive | –
COc1ccccc1OCc1ccc(C(=O)N2N=C(C(F)F)CC2(O)C(F)F)o1 (stereo unspecified) | inactive | –
COCCOC(=O)c1cc(C(=O)c2cc(Cl)ccc2O)coc1=N | inconclusive: 11.2 µM [inhibitor, single point] | –
Cc1ccccc1NC(=O)CN(c1ccc(Cl)cc1Cl)S(=O)(=O)c1ccccc1 | inconclusive: 12.6 µM [inhibitor, partial curve, poor fit] | –
O=C(Cc1ccccc1)Nc1ccccc1C(=O)O | inactive | –
Cc1ccc(C)c(N/C=C(\C#N)c2nc3ccccc3o2)c1 | inactive | –
COc1ccc(NS(=O)(=O)c2cc(NC(=O)C3CC3)ccc2N2CCCCC2)cc1 | inconclusive: 10 µM [inhibitor, partial curve, poor fit] | –
O=C(NNc1c2ccccc2nc2ccccc12)c1ccc(O)cc1 | inconclusive: 11.6 µM [inhibitor, partial curve] | –
CCCCCCCCCC(=O)N/N=C/c1ccc(C)s1 | active: 9.2 µM | –
Cc1ccc(-c2nn(-c3ccccc3)cc2/C=N/NS(=O)(=O)c2ccccc2)cc1 | inconclusive: 5.17 µM [activator, partial curve, poor fit] | –
CSCC(C)N1CCC(n2nccc2NC(=O)c2ccc3c(c2)OCO3)CC1 (stereo unspecified) | inactive | –
C=CCN1C(=O)CSc2ccc(C(=O)NCCC3=CCCCC3)cc21 | active: 7.3 µM | –
CSc1ccc(N/N=C(/C#N)S(=O)(=O)C(C)(C)C)cc1 | inconclusive: 35.5 µM [inhibitor, single point] | –
COc1ccc(C(=O)NCCNC(=O)c2ccc(OC)cc2)cc1 | inactive | –

In another format: entries from further up
SMILES	Potency	activity change, negative = inhibition
CCCCCCCCCC(=O)N/N=C/c1ccc(C)s1	active: 9.2 µM	–
Cc1ccc(-c2nn(-c3ccccc3)cc2/C=N/NS(=O)(=O)c2ccccc2)cc1	inconclusive: 5.17 µM [activator, partial curve, poor fit]	–
CSCC(C)N1CCC(n2nccc2NC(=O)c2ccc3c(c2)OCO3)CC1 (stereo unspecified)	inactive	–

More compounds

SMILES | Potency | activity change, negative = inhibition
CCOC(=O)C1(Cc2ccccc2C(F)(F)F)CCN(C2CCN(C(C)C)CC2)CC1 | inconclusive: 29.1 µM [inhibitor, single point] | –
COC(=O)c1cccc(NC(=O)CSc2nnc(C)o2)c1 | inconclusive: 35.5 µM [inhibitor, single point] | –
Cc1ccc2ccc3cc(C(=O)N4CCN(c5ccccc5)CC4)nc3c2[nH]1 | inconclusive: 17.8 µM [inhibitor, single point] | –
C/C(=N\NC(=O)c1sccc1-n1cccc1)c1cccs1 | inactive | –
CC(=O)Nc1ccc(S(=O)(=O)N2CCN(C(=O)C3COc4ccccc4O3)CC2)cc1 (stereo unspecified) | inconclusive: 35.5 µM [inhibitor, single point] | –
Cc1ccc(C(=O)Nc2ccc(C)c(S(=O)(=O)N(C)C)c2)s1 | inconclusive: 29.1 µM [inhibitor, single point] | –
Cc1ccc(NC(=O)C(=O)NCC(c2cccnc2)N2CCN(Cc3ccccc3)CC2)cc1 (stereo unspecified) | inconclusive: 14.1 µM [inhibitor, single point] | –
Cc1ccc(C2C(C(=O)c3sc(-c4ccccc4)nc3C)=C(O)C(=O)N2CCN(C)C)o1 (stereo unspecified) | inconclusive: 6.31 µM [inhibitor, single point] | –
S=c1[nH]nc(-c2ccco2)n1/N=C/c1cccc(Cl)c1 | inactive | –
C/C(CC(=O)Nc1ccccn1)=N\NC(=O)C(=O)Nc1cccc(C)c1 | inactive | –
CN(C)c1ccnc(Oc2ccc(C(C)(C)C)cc2)c1C#N | inconclusive: 25.9 µM [inhibitor, single point] | –
CCOc1cccc(C(=O)Nc2ccc(NC(=O)c3cc4ccccc4o3)c(OC)c2)c1 | inconclusive: 5.62 µM [inhibitor, single point] | –
COc1ccccc1OCCn1nnc2ccccc21 | – | inconclusive: 12.6% [activator]
O=C(NCCc1ccccc1)c1cccc(NC(=O)C2CCCC2)c1 | inconclusive: 0.315 µM [activator, full curve, poor fit] | –
O=C1N=C(N2CCCCC2)S/C1=C\c1ccccc1F | inactive | –
CC1CCN(S(=O)(=O)c2ccc3c(c2)N(CC(=O)O)C(=O)CO3)CC1 | inactive | –
Cc1ccc(C23CC4CC(CC(NC(=O)N5CCN(C)CC5)(C4)C2)C3)cc1 | inconclusive: 20 µM [inhibitor, single point] | –
COc1cccc(N2C(=O)NC(=O)/C(=C/c3ccc4c(c3)Cc3ccccc3-4)C2=O)c1 | inactive | –
Cc1cc(Cl)ccc1NC(=O)C1CCN(c2nnc(-n3c(C)ccc3C)s2)CC1 | inconclusive: 31.6 µM [activator, single point] | –
CC(=O)CC(=O)Nc1ncc(C(F)(F)F)cc1Cl | inconclusive: 7.94 µM [activator, partial curve, poor fit] | –
Cc1nc(NC(=S)NC(=O)c2ccccc2)sc1C(=O)N(C)C | inconclusive: 14.6 µM [activator, single point] | –
COc1cc(N2CCCC2)c(OC)cc1/C=C(/C#N)c1cccc(F)c1 | inactive | –
CCOc1ccc(S(=O)(=O)NCc2ccccn2)cc1NC(=O)c1ccccc1 | inconclusive: 2.51 µM [inhibitor, full curve] | –
